± gives the standard deviation of the averaged measurements. Most values lie at the floor of the assay. Slopes are relative: functional sequences can read slightly below zero. Bounds are passed on as bounds.

This series relates to Saccharomyces cerevisiae PS128 hsf1 delta, HSF1(1-493) fusion. As to the kind of experiment: growth estimate (transactivation domain function in HSF1 fusion, heat-shock survival) (a.u. (slope of normalised read count over time)); higher = stronger growth at 37°C, i.e. more transactivation activity. The settings on record: library: random library.
As for VNVRCMFHNVGSGV, the growth estimate is -0.246.
In the case of AIRLLATESFPESNTFETAL, the growth estimate is below -0.25.
As to LWRHST, the growth estimate is below -0.25.
Turning to VPVLLTCDLKVGILCSGQAR, the growth estimate was below -0.25.
Then PLMSRRHT, with -0.243.
In the case of AMRR, the growth estimate is below -0.25.
Consider RVPQFRQLSIWNKKLLWVRH, for which the growth estimate is below -0.25.
Under MLLR stands below -0.25; under TRGF, below -0.25.
In the case of GVGVRLQQVLCVQNYRSGGP, the growth estimate was below -0.25.
Take ERCLVTRRSHIHLTLTSLLL: the growth estimate is below -0.25.
Turning to SYHYSTVYPV, the growth estimate is below -0.25.
With MRQTVCILDPPAVLSGEAQC, the growth estimate was below -0.25.
Under PRPLSPPLATRQKLIV stands below -0.25; under HDRVFSEHRRS, below -0.25.
In the case of IRPLARTSTKNPPRRFISNR, the growth estimate was -0.246.
Consider QSISVHFQIW, for which the growth estimate was below -0.25.
SIENRG: the growth estimate is below -0.25.
Under LRPPIRRASRHSH stands below -0.25; under RTGRIRRCDPSRSERLSVPT, below -0.25; under LLTLPGSNSGQGALTGNSEV, -0.248.
Take KWCFMEIWSREPNLRGEPGP: the growth estimate is below -0.25.
Under YATWKGVTFETAGR stands below -0.25.
Turning to FFRL, the growth estimate is -0.204.
For DQKIPSLWSQGEVLRTNGYL, the growth estimate is below -0.25.
As to GCLVRQLV, the growth estimate is below -0.25.
With YGDNLSQVAVGSYPLWLLWG, the growth estimate is below -0.25.
For MRRDCVGDSGCVKLAVKSSV, the growth estimate was below -0.25.
As to PTHIEAVATLPSPCSPCGQR, the growth estimate was below -0.25.
Under RFVMLVTPHLGGTGNACWVL stands below -0.25; under RLITICIEALPRSDESMDNR, below -0.25.
With CERIKVRAQLYNCVTGATSI, the growth estimate is below -0.25.
Take GGNIRDDSKGSCRKLSALEI: the growth estimate is below -0.25.
Take CTGKRRERRGEPAFK: the growth estimate is below -0.25.
Under RPRSHYVIQAHAYLR stands below -0.25; under LTHHVVG, below -0.25; under GNRLSTLSSASP, below -0.25.
As to CTGIVGRVL, the growth estimate is below -0.25.
On to MPPVME, for which the growth estimate is below -0.25.
Under IWDQICEAAREAVT stands below -0.25.
Then NLALTFYEKAERT, with below -0.25; and FGGARVHARTKGLSTAEVKP, with below -0.25; and LRAYCVGGLDVCLLFYMLSY, with below -0.25.
Turning to INLLPRSDPRYGHG, the growth estimate is -0.233.
Regarding PGGIGPGSHSGAWG, the growth estimate is below -0.25.
For the substance YDFPNEIMMCPTIPLRKRWL, the growth estimate is below -0.25.
Consider AISYTDANKPLSHGVRVFCA, for which the growth estimate is below -0.25.
On to QYPKCCCAAPAP, for which the growth estimate is below -0.25.
Take SIRYGVILTNRN: the growth estimate is below -0.25.
Turning to QLDGFRT, the growth estimate was below -0.25.
Regarding CKSG, the growth estimate was below -0.25.
In the case of SMVTKGRGAGNPNSLSEVQP, the growth estimate is below -0.25.
Turning to SRCVARARDES, the growth estimate was below -0.25.
For the substance QSWGSSVSVVE, the growth estimate was below -0.25.
Consider MKWRHVEDRGT, for which the growth estimate is below -0.25.
Take WVLVIIWLECDL: the growth estimate is below -0.25.
For GLDCFERISLGRCRVVFLLS, the growth estimate was below -0.25.
As for LSLRKIDRQVIRRSPTVVQV, the growth estimate was below -0.25.
For FGNMTSGQGP, the growth estimate was below -0.25.
As to HPLRSLLVDKRQSPGK, the growth estimate is below -0.25.
ETDFRYRLLAGDRL: the growth estimate was below -0.25.
Under SRAVGGSSCRVNKAL stands below -0.25; under NGLSRRLYGSSGVRHSR, below -0.25; under QGIFASDNHGV, below -0.25.
Regarding EGGSLA, the growth estimate was below -0.25.
Consider FLSPPRG, for which the growth estimate is below -0.25.
Then KIGQ, with below -0.25; and EGRCLRYEHWVLYRRFSVNL, with below -0.25; and KQT, with below -0.25.
With MFSHLLKSSGSPIRIEYPLS, the growth estimate was below -0.25.
As for AYFLWGGRNG, the growth estimate is below -0.25.
As to AVELVSVCERSFLTVLQGFP, the growth estimate is -0.246.
Under RWVSICNRSEGGWS stands below -0.25; under FVVRSTGRNRIIHTGW, below -0.25; under LAIFWVMSQSPE, below -0.25.
On to INAVQCRPCVQRRE, for which the growth estimate is below -0.25.
Regarding DKSPRCLNDTCMHSVGTLPP, the growth estimate was below -0.25.
Regarding RSSGGLGAGGNEEVCGTLDS, the growth estimate is below -0.25.
Under PLRSPLY stands below -0.25; under TGDRVVLTVLNKILEGN, below -0.25; under SWDVGVSP, below -0.25.
For the substance EHGIAVRIARRRLVCNRLEM, the growth estimate is below -0.25.
SLRD: the growth estimate was below -0.25.
For SAVDH, the growth estimate is below -0.25.
In the case of GVQCG, the growth estimate was below -0.25.
Under NTKQHSCISTRCFVSGRALC stands below -0.25.
Take SPICKLLLTATREQCTLSVE: the growth estimate is below -0.25.
Under ICDSPTICPTVVVFCAASSR stands below -0.25.
Then LTSQGRSARDCPLQSFSTRF, with below -0.25; and AKNT, with -0.246; and MSDNARIGSPRA, with below -0.25.
For LTSIRGVGLVITRVTMASSS, the growth estimate was below -0.25.
As for STTGAVAPGVMNDVILQQPI, the growth estimate was below -0.25.
Then TSRPLASAN, with below -0.25.
Take FQVVVERVHSAVRSPRSITP: the growth estimate was below -0.25.
As for PHSLLHNHPCVDLVGY, the growth estimate was below -0.25.
For the substance VSHTRA, the growth estimate was below -0.25.
Then RTV, with -0.212 ± 0.053; and RTFRPADGCSRDECTEVVRP, with below -0.25; and GCAYGQYRGMSAHTSVKGGI, with below -0.25.
Then RCKILIDISVRPKTP, with below -0.25; and RIGQLIFITIGVAHSRSSGP, with below -0.25; and QTPSQGGALDSRSPALSNQL, with below -0.25.
Under PIERFGDGLIRPATLKISFR stands below -0.25; under WPDMAGGIREGGMGIRDFSS, below -0.25; under TERGSALHLPSAP, below -0.25.
In the case of RSSGSNLWILKYF, the growth estimate is below -0.25.
On to QVFHRPTLNDVRVDAPTLSV, for which the growth estimate is below -0.25.
Take LREGLLEV: the growth estimate is below -0.25.
With SSDV, the growth estimate was below -0.25.
Take AGVSCKWDEVGTDVVLWMVR: the growth estimate was below -0.25.
As for WAGMQGGALPHLYL, the growth estimate is below -0.25.
Regarding QHKSLRQLGDFRFFPTRNSL, the growth estimate was below -0.25.
As to ETLNR, the growth estimate was below -0.25.
On to ETGFGGVQ, for which the growth estimate was below -0.25.
As to SADSCALVDPFSMY, the growth estimate was below -0.25.

Values taken from the supplement of paper PMC5949888.
